# From the supplement of paper PMC12823440, “Inhibitors supercharge kinase turnover through native proteolytic circuits” (Nature, 2025)
# By UniProt entry, the sequences of proteins in these tests, tags left out. Where a name states a change or a piece, a line headed by the entry shows the natural chain unless it says otherwise.
# UniProt P06241, whole entry, looked up: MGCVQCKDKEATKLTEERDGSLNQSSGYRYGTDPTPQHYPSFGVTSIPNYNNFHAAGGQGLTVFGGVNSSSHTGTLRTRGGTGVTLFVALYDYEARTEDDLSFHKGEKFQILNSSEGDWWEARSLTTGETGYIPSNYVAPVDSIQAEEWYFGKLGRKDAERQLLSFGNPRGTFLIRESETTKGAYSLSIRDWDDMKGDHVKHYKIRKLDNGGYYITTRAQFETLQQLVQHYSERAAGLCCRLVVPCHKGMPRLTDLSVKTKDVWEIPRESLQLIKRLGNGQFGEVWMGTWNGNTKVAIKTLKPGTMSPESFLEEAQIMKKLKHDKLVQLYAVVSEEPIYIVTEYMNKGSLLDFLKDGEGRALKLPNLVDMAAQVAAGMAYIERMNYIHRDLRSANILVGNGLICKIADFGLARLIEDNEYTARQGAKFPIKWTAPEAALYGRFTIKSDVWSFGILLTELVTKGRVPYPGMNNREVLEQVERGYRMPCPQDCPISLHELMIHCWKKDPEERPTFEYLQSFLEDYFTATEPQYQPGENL
# UniProt P23458: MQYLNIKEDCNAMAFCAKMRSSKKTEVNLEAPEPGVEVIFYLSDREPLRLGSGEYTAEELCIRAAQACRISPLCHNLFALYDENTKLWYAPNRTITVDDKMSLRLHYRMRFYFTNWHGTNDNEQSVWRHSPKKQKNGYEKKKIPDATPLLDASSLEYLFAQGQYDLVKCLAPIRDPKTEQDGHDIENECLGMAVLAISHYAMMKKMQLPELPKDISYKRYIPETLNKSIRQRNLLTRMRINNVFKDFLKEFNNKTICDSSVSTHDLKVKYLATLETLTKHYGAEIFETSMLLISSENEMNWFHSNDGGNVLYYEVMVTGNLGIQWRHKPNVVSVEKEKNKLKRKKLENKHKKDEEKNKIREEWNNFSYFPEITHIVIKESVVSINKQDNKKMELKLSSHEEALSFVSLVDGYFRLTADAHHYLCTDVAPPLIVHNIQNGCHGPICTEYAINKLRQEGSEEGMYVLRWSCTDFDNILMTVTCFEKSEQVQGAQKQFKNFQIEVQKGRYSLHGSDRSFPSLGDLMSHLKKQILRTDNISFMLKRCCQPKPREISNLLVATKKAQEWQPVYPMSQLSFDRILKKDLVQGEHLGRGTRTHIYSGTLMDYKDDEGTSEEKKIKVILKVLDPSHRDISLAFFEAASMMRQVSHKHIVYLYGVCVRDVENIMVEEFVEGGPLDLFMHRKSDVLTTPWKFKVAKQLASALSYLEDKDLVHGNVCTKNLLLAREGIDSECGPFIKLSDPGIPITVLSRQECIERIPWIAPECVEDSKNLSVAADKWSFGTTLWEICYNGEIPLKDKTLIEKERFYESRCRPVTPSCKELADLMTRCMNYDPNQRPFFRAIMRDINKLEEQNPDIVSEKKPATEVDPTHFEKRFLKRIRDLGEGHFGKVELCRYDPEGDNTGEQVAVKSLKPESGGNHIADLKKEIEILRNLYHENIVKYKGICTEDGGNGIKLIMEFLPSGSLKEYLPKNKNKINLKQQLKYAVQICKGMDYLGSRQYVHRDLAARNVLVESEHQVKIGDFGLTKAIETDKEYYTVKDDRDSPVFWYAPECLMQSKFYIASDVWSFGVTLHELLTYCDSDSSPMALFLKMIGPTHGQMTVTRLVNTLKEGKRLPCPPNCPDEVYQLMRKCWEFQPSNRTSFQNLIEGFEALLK
# UniProt P53667: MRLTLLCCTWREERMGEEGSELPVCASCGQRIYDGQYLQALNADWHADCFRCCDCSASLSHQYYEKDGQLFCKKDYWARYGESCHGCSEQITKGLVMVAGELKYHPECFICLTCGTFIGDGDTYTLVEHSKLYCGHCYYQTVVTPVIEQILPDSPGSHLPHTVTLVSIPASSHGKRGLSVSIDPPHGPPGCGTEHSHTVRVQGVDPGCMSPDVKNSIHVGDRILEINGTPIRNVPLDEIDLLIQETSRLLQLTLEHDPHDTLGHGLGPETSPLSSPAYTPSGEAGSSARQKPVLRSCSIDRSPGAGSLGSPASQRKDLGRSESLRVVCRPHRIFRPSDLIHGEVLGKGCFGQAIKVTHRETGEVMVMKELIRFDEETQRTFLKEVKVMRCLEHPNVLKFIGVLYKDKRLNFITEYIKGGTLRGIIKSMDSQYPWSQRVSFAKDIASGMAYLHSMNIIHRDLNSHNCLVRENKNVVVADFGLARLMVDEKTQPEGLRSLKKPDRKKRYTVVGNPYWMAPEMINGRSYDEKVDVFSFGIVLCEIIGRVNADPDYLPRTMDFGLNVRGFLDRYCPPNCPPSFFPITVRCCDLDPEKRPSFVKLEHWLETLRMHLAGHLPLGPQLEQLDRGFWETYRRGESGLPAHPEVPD
# UniProt P53671: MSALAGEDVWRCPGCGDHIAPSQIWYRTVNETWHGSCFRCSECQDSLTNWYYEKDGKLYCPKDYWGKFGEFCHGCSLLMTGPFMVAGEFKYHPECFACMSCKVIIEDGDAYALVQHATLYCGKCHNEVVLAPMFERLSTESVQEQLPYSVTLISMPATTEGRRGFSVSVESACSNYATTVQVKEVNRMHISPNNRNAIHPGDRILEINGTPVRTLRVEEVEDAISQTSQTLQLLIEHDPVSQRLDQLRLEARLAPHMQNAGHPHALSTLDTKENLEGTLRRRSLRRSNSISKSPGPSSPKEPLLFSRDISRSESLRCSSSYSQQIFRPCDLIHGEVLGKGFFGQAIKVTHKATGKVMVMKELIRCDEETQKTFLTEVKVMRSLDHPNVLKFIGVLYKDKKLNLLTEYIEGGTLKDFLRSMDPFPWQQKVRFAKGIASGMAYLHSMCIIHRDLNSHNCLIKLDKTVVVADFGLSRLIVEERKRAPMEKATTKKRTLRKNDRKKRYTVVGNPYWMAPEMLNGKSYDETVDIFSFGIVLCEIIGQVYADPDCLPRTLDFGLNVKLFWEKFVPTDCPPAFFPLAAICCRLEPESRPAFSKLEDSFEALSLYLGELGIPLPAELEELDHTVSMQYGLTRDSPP
# UniProt P07948: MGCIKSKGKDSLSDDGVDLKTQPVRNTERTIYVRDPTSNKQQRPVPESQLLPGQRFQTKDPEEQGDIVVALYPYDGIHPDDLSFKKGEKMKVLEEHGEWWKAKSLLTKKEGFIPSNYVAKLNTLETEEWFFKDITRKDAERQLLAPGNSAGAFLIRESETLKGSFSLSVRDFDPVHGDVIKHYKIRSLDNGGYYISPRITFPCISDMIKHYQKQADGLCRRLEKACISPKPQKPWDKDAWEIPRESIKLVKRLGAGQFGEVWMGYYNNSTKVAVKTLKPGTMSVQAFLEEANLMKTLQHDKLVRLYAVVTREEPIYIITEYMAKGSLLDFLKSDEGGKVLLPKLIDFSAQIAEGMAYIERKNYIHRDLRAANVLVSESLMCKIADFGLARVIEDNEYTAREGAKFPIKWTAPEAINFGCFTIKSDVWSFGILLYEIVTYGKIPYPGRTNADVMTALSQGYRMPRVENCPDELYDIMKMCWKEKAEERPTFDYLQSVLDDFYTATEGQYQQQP
# UniProt Q12851: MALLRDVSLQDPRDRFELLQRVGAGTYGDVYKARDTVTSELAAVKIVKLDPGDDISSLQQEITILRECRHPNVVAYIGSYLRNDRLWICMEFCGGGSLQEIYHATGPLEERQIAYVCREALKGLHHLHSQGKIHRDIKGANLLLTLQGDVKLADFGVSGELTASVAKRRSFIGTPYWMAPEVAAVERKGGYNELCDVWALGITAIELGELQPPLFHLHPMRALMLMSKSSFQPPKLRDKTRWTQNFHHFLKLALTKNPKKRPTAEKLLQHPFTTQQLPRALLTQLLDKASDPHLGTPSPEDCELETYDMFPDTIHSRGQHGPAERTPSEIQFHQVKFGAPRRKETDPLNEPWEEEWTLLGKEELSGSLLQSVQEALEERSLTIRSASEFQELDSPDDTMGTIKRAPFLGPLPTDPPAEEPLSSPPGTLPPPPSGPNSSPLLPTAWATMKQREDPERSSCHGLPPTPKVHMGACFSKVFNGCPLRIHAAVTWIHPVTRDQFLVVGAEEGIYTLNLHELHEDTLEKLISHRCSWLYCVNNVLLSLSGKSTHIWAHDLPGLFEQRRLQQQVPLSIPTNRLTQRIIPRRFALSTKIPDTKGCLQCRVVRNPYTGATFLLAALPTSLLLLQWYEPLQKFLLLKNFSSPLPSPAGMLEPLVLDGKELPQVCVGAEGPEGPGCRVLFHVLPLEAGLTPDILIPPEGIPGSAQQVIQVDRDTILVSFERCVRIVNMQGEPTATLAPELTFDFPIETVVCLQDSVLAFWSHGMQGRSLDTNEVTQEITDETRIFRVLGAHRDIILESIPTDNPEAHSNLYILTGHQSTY
# UniProt P28482, whole entry: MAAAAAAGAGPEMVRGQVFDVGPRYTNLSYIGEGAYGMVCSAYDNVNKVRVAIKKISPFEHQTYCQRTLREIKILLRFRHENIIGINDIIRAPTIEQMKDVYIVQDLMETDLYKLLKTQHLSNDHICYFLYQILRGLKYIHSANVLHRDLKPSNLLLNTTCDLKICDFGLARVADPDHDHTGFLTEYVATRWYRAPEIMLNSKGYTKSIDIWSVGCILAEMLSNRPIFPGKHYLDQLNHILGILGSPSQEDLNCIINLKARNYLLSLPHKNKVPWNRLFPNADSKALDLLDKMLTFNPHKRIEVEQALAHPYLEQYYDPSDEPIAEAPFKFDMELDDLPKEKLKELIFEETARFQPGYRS
# UniProt P49137, whole entry, looked up: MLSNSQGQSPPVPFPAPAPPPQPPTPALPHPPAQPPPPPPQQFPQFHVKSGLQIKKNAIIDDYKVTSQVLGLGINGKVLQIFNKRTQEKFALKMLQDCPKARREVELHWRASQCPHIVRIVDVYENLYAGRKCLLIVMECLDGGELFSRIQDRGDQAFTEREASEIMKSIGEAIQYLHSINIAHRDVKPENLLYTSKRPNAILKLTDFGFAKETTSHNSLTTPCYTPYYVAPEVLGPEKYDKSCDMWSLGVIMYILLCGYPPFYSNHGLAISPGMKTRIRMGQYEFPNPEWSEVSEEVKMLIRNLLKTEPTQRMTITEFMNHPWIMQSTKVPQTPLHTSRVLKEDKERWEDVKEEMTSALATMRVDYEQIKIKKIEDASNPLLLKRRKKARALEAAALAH
# UniProt Q9BUB5: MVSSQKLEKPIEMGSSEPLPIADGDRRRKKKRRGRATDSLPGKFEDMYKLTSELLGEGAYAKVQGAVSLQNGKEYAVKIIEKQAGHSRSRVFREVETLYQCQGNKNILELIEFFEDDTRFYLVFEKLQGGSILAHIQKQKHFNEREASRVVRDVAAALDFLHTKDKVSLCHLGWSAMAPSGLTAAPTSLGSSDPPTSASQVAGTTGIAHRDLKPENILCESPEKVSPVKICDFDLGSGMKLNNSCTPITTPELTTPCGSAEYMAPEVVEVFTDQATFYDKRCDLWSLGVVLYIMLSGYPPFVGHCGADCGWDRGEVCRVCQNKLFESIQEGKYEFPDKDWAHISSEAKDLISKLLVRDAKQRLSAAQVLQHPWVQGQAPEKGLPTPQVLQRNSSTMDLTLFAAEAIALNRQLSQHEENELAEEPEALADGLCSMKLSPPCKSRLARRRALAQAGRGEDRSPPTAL
# UniProt Q16620, whole entry, looked up: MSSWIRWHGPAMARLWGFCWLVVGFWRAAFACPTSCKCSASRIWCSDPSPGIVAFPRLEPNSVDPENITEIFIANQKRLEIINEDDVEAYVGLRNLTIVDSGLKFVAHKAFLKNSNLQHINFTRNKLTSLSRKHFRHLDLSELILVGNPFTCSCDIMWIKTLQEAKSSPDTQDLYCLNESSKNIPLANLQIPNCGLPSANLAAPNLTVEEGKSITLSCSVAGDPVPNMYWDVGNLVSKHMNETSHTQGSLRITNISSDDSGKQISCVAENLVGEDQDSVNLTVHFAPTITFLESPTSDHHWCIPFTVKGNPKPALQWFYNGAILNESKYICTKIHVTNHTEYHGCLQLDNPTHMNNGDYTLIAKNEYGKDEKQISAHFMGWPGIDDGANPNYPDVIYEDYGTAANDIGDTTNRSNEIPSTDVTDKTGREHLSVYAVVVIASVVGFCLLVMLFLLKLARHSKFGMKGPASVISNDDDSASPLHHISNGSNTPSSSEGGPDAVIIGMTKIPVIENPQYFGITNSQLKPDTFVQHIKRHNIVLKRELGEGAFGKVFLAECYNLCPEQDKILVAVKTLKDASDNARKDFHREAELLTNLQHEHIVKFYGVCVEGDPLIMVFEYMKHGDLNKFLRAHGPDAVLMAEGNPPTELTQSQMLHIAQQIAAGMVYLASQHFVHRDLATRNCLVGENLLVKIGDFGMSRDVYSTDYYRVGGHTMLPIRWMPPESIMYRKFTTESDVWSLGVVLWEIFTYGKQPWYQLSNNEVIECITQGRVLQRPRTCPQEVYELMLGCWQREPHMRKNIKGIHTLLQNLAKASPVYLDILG
# Where a name gives a salt, the structure may show the parent alone. This is one part of the list. Hit calls seldom repeat between salt and free forms of one compound.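 Kinases were expressed as nanoluciferase fusions in K562 cells and luminescence was read every 4 h between 2 and 18 h as percent of control, DMSO set to 100% and a positive control to 0%. A time point counts as decreased when the signal drops significantly (2 sigma). The hit call is the authors' own, does not follow from the count of time points alone, and its rule is not shown.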
# Legend:
# Experiment in all cases: number of time points (of 5) at which kinase-Nluc abundance scored as decreased, DMSO-normalised (count); higher = more persistent destabilization
# Settings in all cases: K562; 2-18 h
# [1] = target: FLT3 (UniProt P36888)
# [2] = target: FYN (UniProt P06241)
# [3] = target: GSK3A (UniProt P49840)
# [4] = target: HER2 (UniProt P04626)
# [5] = target: INSRR (UniProt P14616)
# [6] = target: IRAK3 (UniProt Q9Y616)
# [7] = target: JAK1 (UniProt P23458)
# [8] = target: LCK (UniProt P06239)
# [9] = target: LIMK1 (UniProt P53667)
# [10] = target: LIMK2 (UniProt P53671)
# [11] = target: LMTK2 (UniProt Q8IWU2)
# [12] = target: LYN (UniProt P07948)
# [13] = target: MAP2K1 (UniProt Q02750)
# [14] = target: MAP2K2 (UniProt P36507)
# [15] = target: MAP4K2 (UniProt Q12851)
# [16] = target: MAPK1 (UniProt P28482)
# [17] = target: MAPK4 (UniProt P31152)
# [18] = target: MAPKAPK2 (UniProt P49137)
# [19] = target: MKNK1 (UniProt Q9BUB5)
# [20] = target: NTRK2 (UniProt Q16620)
SMILES,number of time points [1],number of time points [2],number of time points [3],number of time points [4],number of time points [5],number of time points [6],number of time points [7],number of time points [8],number of time points [9],number of time points [10],number of time points [11],number of time points [12],number of time points [13],number of time points [14],number of time points [15],number of time points [16],number of time points [17],number of time points [18],number of time points [19],number of time points [20]
CNC[C@@H](NC(=O)c1ccc(-c2nc([C@H]3CC[C@H](O)[C@@H](F)C3)cnc2N)cc1F)c1cc(F)cc(Br)c1 [Rineterkib] (10 µM),0,0,0,0,0,0,0,0,0,0,0,0,0,0,0,0,0,0,0,0
C=CC(=O)N1CCC[C@@H](n2c(=O)n(-c3ccc(Oc4ccccc4)cc3)c3c(N)nccc32)C1 [Tolebrutinib] (10 µM),0,0,0,0,0,0,0,0,0,0,0,0,0,0,0,0,0,0,0,0
COc1ccc(C(=O)c2cn(C(C)C)c3ncnc(N)c23)cc1NC(=O)Nc1ccc(Cl)cc1Cl (10 µM),0,0,0,0,0,0,0,0,4,5,0,0,0,0,0,0,0,0,0,0
Nc1nc2c(ncn2COCCO)c(=O)[nH]1 [Acyclovir] (10 µM),0,0,0,0,0,0,0,0,0,0,0,0,0,0,0,0,0,0,0,0
N#Cc1c[nH]c2ccc(-c3ccc(-c4c(O)cccc4O)cc3)cc12 (10 µM),0,0,0,0,0,0,0,0,0,0,0,0,0,0,0,0,0,0,0,0
COc1c(OCCCN2CCOCC2)ccc2c3n(c(=NC(=O)c4cnc(N)nc4)nc12)CCN3 [Copanlisib (dihydrochloride)] (10 µM),0,3,1,3,1,3,4,0,4,3,2,2,0,0,0,1,1,0,4,0
CCOC(=O)C1=C[C@]2(CC)CCCN3CCc4c(n1c1ccccc41)[C@@H]32 [Vinpocetine] (10 µM),0,0,0,0,0,0,0,0,0,0,0,0,0,0,0,0,0,0,0,0
CC(C)n1nc(C#Cc2ccccc2)c2c(N)ncnc21 (10 µM),0,5,0,0,2,0,0,0,0,0,0,0,0,0,0,0,0,0,0,0
O=C(N=c1sccn1Cc1ccccc1)c1c[nH]c2ncccc12 (10 µM),0,0,0,0,0,0,0,0,0,0,0,0,0,0,0,0,0,0,0,0
COc1ccc(F)cc1C(=O)NCc1ccc(-c2nn([C@@H](C)C(F)(F)F)c(N)c2C(N)=O)cc1 [Pirtobrutinib] (10 µM),0,0,0,0,0,0,0,0,0,0,0,0,0,0,0,0,0,0,0,0
CC(C)=CCC/C(C)=C/CC/C(C)=C/CSc1ccccc1C(=O)O [Salirasib] (10 µM),0,0,0,0,0,0,0,0,0,0,0,0,0,0,0,0,0,0,0,0
CN(C)CCCn1cc(C2=C(c3c[nH]c4ccccc34)C(=O)NC2=O)c2ccccc21 [Bisindolylmaleimide I] (2.5 µM),0,0,0,0,0,0,0,0,0,0,0,0,0,0,0,0,0,0,0,0
Cc1cccc(Cn2nc(C)c3c(NC(=O)c4csc5c(N)ncnc45)cccc32)n1 (10 µM),0,0,0,0,0,0,0,0,0,0,0,0,0,0,0,0,0,0,0,0
C[C@@H](Nc1cc(F)cc(F)c1)c1cc(C(=O)N(C)C)cc2c(=O)cc(N3CCOCC3)oc12 (10 µM),0,0,0,0,0,0,0,0,0,0,0,0,0,0,0,0,0,0,0,0
C=CC(=O)N[C@H]1CCOC[C@H]1Nc1ncc2cc(-c3c(Cl)c(OC)cc(OC)c3Cl)ccc2n1 [Fisogatinib] (10 µM),0,0,0,0,0,0,0,0,0,0,0,0,0,0,0,0,0,0,0,0
CS(=O)(=O)N1CCN(Cc2cn3cc(-c4cnc(N)nc4)nc(N4CCOCC4)c3n2)CC1 (10 µM),0,4,0,1,0,0,0,0,3,0,0,0,0,0,0,0,0,0,1,0
CC[C@@H]1CN(C(=O)NCC(F)(F)F)C[C@@H]1c1cnc2cnc3[nH]ccc3n12 [Upadacitinib] (10 µM),0,0,0,0,0,0,0,0,0,0,0,0,0,0,0,0,0,0,0,0
Cn1sc(=O)n(Cc2ccccc2)c1=O (10 µM),0,0,0,0,0,0,0,0,0,0,0,0,0,0,0,0,0,0,0,0
Cn1cc(-c2cn3nccc3c(-c3cnn([C@]4(CC#N)C[C@@H](C#N)C4)c3)n2)cn1 (10 µM),0,0,0,0,0,0,0,0,0,0,0,0,0,0,0,0,0,0,0,0
COc1cc(OC)c(/C=C/S(=O)(=O)Cc2ccc(OC)c(NCC(=O)O)c2)c(OC)c1 [Rigosertib (sodium)] (10 µM),1,3,0,4,2,0,1,0,0,0,1,1,0,0,0,0,0,0,1,0
CC(C)[C@H](CO)Nc1nc(Nc2ccc(C(=O)O)c(Cl)c2)c2ncn(C(C)C)c2n1 [Purvalanol B] (10 µM),0,0,0,0,0,0,0,0,0,0,0,0,0,0,0,0,0,0,0,0
NC(=O)c1nc(-c2c(F)cccc2Cl)oc1Nc1ccc(C(=O)N2CCOCC2)cc1 (10 µM),0,0,0,0,0,0,0,0,0,0,0,0,0,0,0,0,0,0,0,0
C[C@@H]1CN(Cc2cn[nH]c2-c2ccc(C#N)cc2)CCN1c1ccc(C(F)(F)F)cn1 (2.5 µM),0,0,0,0,0,0,0,0,0,0,0,0,0,0,0,0,0,0,0,0
O=C1c2cccc(O)c2C(=O)c2c(O)cccc21 [Danthron] (10 µM),0,0,0,0,0,0,0,0,0,0,0,0,0,0,0,0,0,0,0,0

# Retrieved by structure from the entries so far:
SMILES,number of time points [1],number of time points [2],number of time points [3],number of time points [4],number of time points [5],number of time points [6],number of time points [7],number of time points [8],number of time points [9],number of time points [10],number of time points [11],number of time points [12],number of time points [13],number of time points [14],number of time points [15],number of time points [16],number of time points [17],number of time points [18],number of time points [19],number of time points [20]
Cc1cccc(Cn2nc(C)c3c(NC(=O)c4csc5c(N)ncnc45)cccc32)n1 (10 µM),0,0,0,0,0,0,0,0,0,0,0,0,0,0,0,0,0,0,0,0
Nc1nc2c(ncn2COCCO)c(=O)[nH]1 [Acyclovir] (10 µM),0,0,0,0,0,0,0,0,0,0,0,0,0,0,0,0,0,0,0,0
